Patent EP4810513A1 (Genexine, Inc., dated 2026)
No constants are given. Whether binding was seen depends on the method and setting. Some results given as binding are weak or reduced against the parent protein; the word gives no strength. For some assays here: Where a sequence is shown, tags or fusion partners need not be part of it.

Protein sequences, listed by entry. Tags and fused reporters are not part of them.
UniProt P48431: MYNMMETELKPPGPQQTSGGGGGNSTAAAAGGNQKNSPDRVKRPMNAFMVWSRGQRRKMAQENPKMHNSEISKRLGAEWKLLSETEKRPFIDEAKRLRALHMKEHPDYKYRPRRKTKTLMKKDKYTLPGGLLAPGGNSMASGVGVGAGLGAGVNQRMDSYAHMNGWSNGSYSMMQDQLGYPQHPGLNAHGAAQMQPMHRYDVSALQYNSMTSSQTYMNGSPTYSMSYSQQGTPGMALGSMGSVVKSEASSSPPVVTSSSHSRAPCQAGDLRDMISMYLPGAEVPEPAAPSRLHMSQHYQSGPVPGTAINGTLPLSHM

Key:
[1] = molecular target: huSOX2 (Cusabio, Cat no. CSB-EP022426HU(M)) antigen (human) (UniProt P48431); assay: 4 rounds of panning on huSOX2 (Cusabio) antigen
[2] = molecular target: huSOX2 protein with N-terminal Halo tag (pHTN vector), expressed in HEK293T cells (human) (UniProt P48431); assay: NanoBRET in HEK293T cells, NanoLuc-VHH and Halo-huSOX2

| Binder | binding [1] | binding [2] |
| --- | --- | --- |
| S14 (huSOX2-specific VHH antibody) (VHH) VHH: QVKLEESGGGSVQTGGSLRLTCAASGSIFSMNRMGWFRQAPGKERELVAVIDSKRNKTHYADSVKGRFTISRDNAKNTVDLQMNSLKPEDTAIYYCTAWTGRPPRGYWGQGTQVTVSS | binds | – |
| S14 with N-terminal NanoLuc tag (pNLF1-N-S14), expressed in HEK293T cells (VHH, not shown: large carriers) VHH: QVKLEESGGGSVQTGGSLRLTCAASGSIFSMNRMGWFRQAPGKERELVAVIDSKRNKTHYADSVKGRFTISRDNAKNTVDLQMNSLKPEDTAIYYCTAWTGRPPRGYWGQGTQVTVSS | – | binds |
